From US10688131B2, “Peptides and scaffolds for use in immunotherapy against head and neck squamous cell carcinoma and other cancers” (Immatics Biotechnologies GmbH, priority 2016, dated 2020)

Tests used:
[1] = system: head and neck squamous cell carcinoma samples; assay: Identification and label-free LC-MS quantitation of HLA-presented peptides (presentation profile) on HNSCC versus normal tissues; design: species or system human; key: very highly over-presented on tumors compared to a panel of normal tissues (+++); highly over-presented on tumors compared to a panel of normal tissues (++); over-presented on tumors compared to a panel of normal tissues (+); conditions: presentation score: over-presentation on head and neck squamous cell carcinoma tumors compared to a panel of normal tissues
[2] = system: additional tumor types; assay: LC-MS presentation of peptides on additional tumor types versus normal tissues; design: species or system human; conditions: for Other relevant organs/diseases: additional tumor types where over-presented on more than 5% of measured tumor samples, or presented on more than 5% with ratio of geometric means tumor vs normal larger than 3 (Table 4A); for Additional Entities: additional tumor types, same criteria, other normal tissue panel (Table 4B)

Substance	Peptide Presentation [1]	Other relevant organs/diseases [2]	Additional Entities [2]
26 (TLVDENQSWYL; listed as Homo sapiens) [compound 26]	+++		
34 (ALDTFSVQV; listed as Homo sapiens) [compound 34]	+++		
76 (ILFDEVLTFA; listed as Homo sapiens) [compound 76]		CLL, NHL, AML, BRCA, Uterine Cancer, Gallbladder Cancer, Bile Duct Cancer	
14 (RIMEGIPTV; listed as Homo sapiens) [compound 14]	+++		
89 (VLDEGLTSV; listed as Homo sapiens) [compound 89]		SCLC, RCC, CLL, NHL, BRCA, Melanoma, Urinary bladder cancer, Uterine Cancer	
15 (SMLNNIINL; listed as Homo sapiens) [compound 15]	+	Urinary bladder cancer	
66 (TLLSEIAEL; listed as Homo sapiens) [compound 66]		CLL, NHL, AML, Melanoma, OC, Uterine Cancer	HCC
65 (ALWGFFPVLL; listed as Homo sapiens) [compound 65]		CLL, Melanoma	HCC
35 (ALVGDVILTV; listed as Homo sapiens) [compound 35]	+++		
88 (LMAPAPSTV; listed as Homo sapiens) [compound 88]	++	Brain Cancer, Esophageal Cancer, Urinary bladder cancer	Melanoma
2 (PVCPPGGIQEV; listed as Homo sapiens) [compound 2]	+++	NSCLC, SCLC	Esophageal Cancer
30 (TLASLGYAVV; listed as Homo sapiens) [compound 30]	+++		
33 (AIYEGVGWNV; listed as Homo sapiens) [compound 33]	+++		
18 (YLYPDLSRL; listed as Homo sapiens) [compound 18]		Brain Cancer	
57 (AILGFALSEA; listed as Homo sapiens) [compound 57]		AML, BRCA, Melanoma, Uterine Cancer, Gallbladder Cancer, Bile Duct Cancer	HCC
87 (ALPEPSPAA; listed as Homo sapiens) [compound 87]		RCC, NHL, Melanoma, Gallbladder Cancer, Bile Duct Cancer	
36 (GLWSSIFSL; listed as Homo sapiens) [compound 36]	+++		
22 (KLPEPCPSTV; listed as Homo sapiens) [compound 22]	+++		
25 (SLCPPGGIQEV; listed as Homo sapiens) [compound 25]	+++		
64 (KILESLFVSL; listed as Homo sapiens) [compound 64]		NSCLC, Urinary bladder cancer, Gallbladder Cancer, Bile Duct Cancer	
84 (ALMAGCIQEA; listed as Homo sapiens) [compound 84]	+++		
12 (TLTDEINFL; listed as Homo sapiens) [compound 12]	+++		
13 (SLVSYLDKV; listed as Homo sapiens) [compound 13]	+++		
55 (VLNVGVAEV; listed as Homo sapiens) [compound 55]	+++		
40 (LLTPLNLQI; listed as Homo sapiens) [compound 40]	+++		
28 (AVDPVSGSLYV; listed as Homo sapiens) [compound 28]	+++		
44 (GLGDDSFPI; listed as Homo sapiens) [compound 44]	+++		
77 (SLRAFLMPI; listed as Homo sapiens) [compound 77]		AML	
38 (KLLPGVQYV; listed as Homo sapiens) [compound 38]	+++		
5 (VCPPGGIQEV; listed as Homo sapiens) [compound 5]	+++		
